# Library screen at single concentrations

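Cell assay of Leishmania donovani living inside macrophages; the read-out is not stated. Tested at 30 µM. The record gives no direction; compounds that gave an IC50 in retests scored well above the rest, so higher reads as stronger inhibition. About 69,000 compounds were tested under these conditions; 1.5% (about 1,000) showed 50% or more at least once.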

Each number is a percent effect as filed. How 0% and 100% were set is not recorded. Most values in the screen are low, and negative values occur. This is an unselected part of the compounds tested. Two or more numbers in one place are separate tests of the same structure; such repeats can differ widely.

{"structure": "Cl.O=C(c1ccccc1)N1CCC2(CC1)CNc1c(F)cccc12", "percent effect": 37.66}
{"structure": "Cc1nn(C(=O)c2cccnc2)c(C)c1C", "percent effect": -15.91}
{"structure": "Cc1noc(C)c1CN1CCC2(COCc3cnc(N(C)C)nc32)C1.O=C(O)C(F)(F)F", "stereo": "stereo not shown", "percent effect": 0.8796}
{"structure": "CC(=O)N1CCCN(CCCSc2ccccc2Cl)CC1", "percent effect": 30.03}
{"structure": "Cn1cc(CN2CC[C@H](O)[C@@H](n3ccc(=O)[nH]c3=O)CC2)cn1", "percent effect": 5.658}
{"structure": "CS(=O)(=O)N1CC(c2ccnc(Nc3ccccn3)n2)C1", "percent effect": -1.386}
{"structure": "CC(C)(C)NC(=O)C1(Cc2ccccc2-c2ccncc2)CCOCC1", "percent effect": -19.58}
{"structure": "COC(=O)Cc1cccc(NC(=O)Cc2cc(C)[nH]n2)c1", "percent effect": 14.63}
{"structure": "Cc1nc(C)n(C2CCCN(C(=O)CCc3cscn3)C2)n1", "stereo": "stereo not shown", "percent effect": -25.11}
{"structure": "CCc1noc(C2CCCCN2C(=O)c2sccc2C)n1", "stereo": "stereo not shown", "percent effect": -68.26}
{"structure": "Cc1cccc(Nc2cccc(C3CCCN(Cc4ncc[nH]4)C3)n2)n1", "stereo": "stereo not shown", "percent effect": 10.95}
{"structure": "Cc1cc(C)n(C2CN(CC(O)c3cc(F)ccc3F)C2)n1", "stereo": "stereo not shown", "percent effect": 5.908}
{"structure": "CS(=O)(=O)N1CCC(Oc2ccc(C(=O)NC3CCOC3)cc2Cl)CC1", "stereo": "stereo not shown", "percent effect": 8.601}
{"structure": "COCCNC(=O)c1cnc(N(C)C)nc1C", "percent effect": 9.252}
{"structure": "O=C1CC(c2ccc(O)cc2)c2c(n3ccsc3nc2=O)N1", "stereo": "stereo not shown", "percent effect": 12.7}
{"structure": "O=C(O)C(F)(F)F.[H][C@@]12OCCN(C(=O)N3CCCC3)[C@@]1([H])CC[C@@H]2Oc1ccccn1", "percent effect": 1.565}
{"structure": "CCN1CCC(CC(=O)NCC(O)c2cccc(OC)c2)CC1", "stereo": "stereo not shown", "percent effect": 23.15}
{"structure": "CC1(C(=O)N2CCOCC2)CNCCO1.Cl", "stereo": "stereo not shown", "percent effect": 10.26}
{"structure": "COc1ccc(C(C)=O)cc1CN1CCn2cccc2C1C", "stereo": "stereo not shown", "percent effect": 25.01}
{"structure": "Cc1ccc(S(=O)(=O)NC(=O)C2(c3ccccc3)CCC2)c(C)c1", "percent effect": -13.65}
{"structure": "CC(C)NC(=O)N1CCC2(CC1)C(=O)NCCN2Cc1ccccc1.O=C(O)C(F)(F)F", "percent effect": 3.775}
{"structure": "CCSCCC(C)NC(=O)Nc1cccn(C)c1=O", "stereo": "stereo not shown", "percent effect": 6.07}
{"structure": "CC(CNC(=O)c1cccc(-n2cccn2)n1)Cn1ccnc1", "stereo": "stereo not shown", "percent effect": 11.75}
{"structure": "CC(C)NC(=O)NCCCc1cccc(F)c1", "percent effect": 42.66}
{"structure": "CCCn1nccc1C(=O)Nc1ncc(C)s1", "percent effect": -1.973}
{"structure": "COc1ccc(OCCN2CCOCS2(=O)=O)cc1", "percent effect": 19.32}
{"structure": "CNS(=O)(=O)c1ccc(CNC(=O)NCC2CCC2)cc1", "percent effect": 0.4281}
{"structure": "COc1ccc(CC(=O)N2CCCCC2Cn2cccn2)cc1", "stereo": "stereo not shown", "percent effect": 0.4594}
{"structure": "CC1c2ncc(COc3cccnc3)n2CCN1C(=O)Cc1ccco1.O=C(O)C(F)(F)F", "stereo": "stereo not shown", "percent effect": -10.94}
{"structure": "O=C(NCC1CC1)C1CCC2(CCN(C(=O)c3ccco3)CC2)O1", "stereo": "stereo not shown", "percent effect": 15.45}
{"structure": "O=C(O)C(F)(F)F.[H][C@@]12CCCO[C@]1([H])[C@H](N(C)Cc1cncnc1)CN2C(=O)c1ccco1", "percent effect": 15.59}
{"structure": "CCc1nc(CN(C)C(=O)C2CC(=O)N(c3cccc(O)c3)C2)no1", "stereo": "stereo not shown", "percent effect": -57.5}
{"structure": "[H][C@]12CC[C@]([H])(CN(C(=O)C3CCC3)C1)N(C(=O)c1ccccc1SC)C2", "percent effect": 21.64}
{"structure": "CN1CCN(c2cc(CNC(=O)c3ccsc3)ccn2)CC1", "percent effect": 22.74}
{"structure": "CCCC(=O)N1CCCN(C(=O)Nc2ccc(C)s2)CC1", "percent effect": -2.37}
{"structure": "CCS(=O)(=O)N1CCC(Nc2c(F)cc(C#N)cc2F)CC1", "percent effect": 7.774}
{"structure": "CC(=O)NC[C@H]1OC[C@@H](NC2CCC(F)(F)CC2)[C@@H]1O", "percent effect": -84.58}
{"structure": "Cc1cccnc1CN1CC[C@@](C)(O)[C@H](Oc2ccccc2)C1", "percent effect": -2.028}
{"structure": "CCc1nn(C)c(Cl)c1CN1CCN(c2ccc(Cl)nn2)CC1", "percent effect": -24.57}
{"structure": "Cc1ncc(CN2CCC(c3ccnn3C)CC2)n1-c1ccccc1", "percent effect": 48.73}
{"structure": "[H][C@]12CCC[C@@]1(COCc1ccncc1)CN(C1CCOCC1)C2", "percent effect": 39.47}
{"structure": "CC(C)N1CCOCC2(CN(Cc3nccs3)CCO2)C1.O=C(O)C(F)(F)F.O=C(O)C(F)(F)F", "stereo": "stereo not shown", "percent effect": 20.63}
{"structure": "O=C(O)C(F)(F)F.[H][C@@]12CN(C(=O)C3CC3)C[C@]1([H])C(=O)N(Cc1csc(C)n1)C2", "percent effect": -18.63}
{"structure": "Cc1nc(CN(CCS(C)(=O)=O)C(C)C)no1", "percent effect": 20.42}
{"structure": "CS(=O)(=O)CCCN1CCSCC1c1ccc(Cl)cc1", "stereo": "stereo not shown", "percent effect": 24.28}
{"structure": "Cc1nc(C)n(CC2CCCN2Cc2nc(-c3ccccn3)no2)n1", "stereo": "stereo not shown", "percent effect": 12.35}
{"structure": "COc1ccc(CCCN(C)C(=O)c2cc(C(C)=O)c[nH]2)cc1OC", "percent effect": -9.695}
{"structure": "CCn1c(Cn2cncn2)nnc1C1CCN(C2CCOCC2)CC1", "percent effect": "-38.12 and -33.05"}
{"structure": "Cc1csc(CNCC(C)c2nc3ccccc3o2)n1", "stereo": "stereo not shown", "percent effect": -11.51}
{"structure": "Cc1cccc2cc(C(=O)N3CCC(F)(F)CC3)n(C)c12", "percent effect": -12.66}
{"structure": "O=S(=O)(NCCC(O)c1cccs1)c1c(F)cccc1F", "stereo": "stereo not shown", "percent effect": "14.16 and -1.709"}

Some entries from above, unchanged:

| structure | percent effect |
|---|---|
| `Cc1nn(C(=O)c2cccnc2)c(C)c1C` | -15.91% |
| `CCCn1nccc1C(=O)Nc1ncc(C)s1` | -1.973% |
| `COCCNC(=O)c1cnc(N(C)C)nc1C` | 9.252% |

From ChEMBL document CHEMBL3988442, “University of Dundee, Small-Polar-MMV Screening Library” (2021).